The target of this assay is T1, FLAG-tagged HDAC7 (histone deacetylase 7) (UniProt Q8WUI4).
T1 sequence: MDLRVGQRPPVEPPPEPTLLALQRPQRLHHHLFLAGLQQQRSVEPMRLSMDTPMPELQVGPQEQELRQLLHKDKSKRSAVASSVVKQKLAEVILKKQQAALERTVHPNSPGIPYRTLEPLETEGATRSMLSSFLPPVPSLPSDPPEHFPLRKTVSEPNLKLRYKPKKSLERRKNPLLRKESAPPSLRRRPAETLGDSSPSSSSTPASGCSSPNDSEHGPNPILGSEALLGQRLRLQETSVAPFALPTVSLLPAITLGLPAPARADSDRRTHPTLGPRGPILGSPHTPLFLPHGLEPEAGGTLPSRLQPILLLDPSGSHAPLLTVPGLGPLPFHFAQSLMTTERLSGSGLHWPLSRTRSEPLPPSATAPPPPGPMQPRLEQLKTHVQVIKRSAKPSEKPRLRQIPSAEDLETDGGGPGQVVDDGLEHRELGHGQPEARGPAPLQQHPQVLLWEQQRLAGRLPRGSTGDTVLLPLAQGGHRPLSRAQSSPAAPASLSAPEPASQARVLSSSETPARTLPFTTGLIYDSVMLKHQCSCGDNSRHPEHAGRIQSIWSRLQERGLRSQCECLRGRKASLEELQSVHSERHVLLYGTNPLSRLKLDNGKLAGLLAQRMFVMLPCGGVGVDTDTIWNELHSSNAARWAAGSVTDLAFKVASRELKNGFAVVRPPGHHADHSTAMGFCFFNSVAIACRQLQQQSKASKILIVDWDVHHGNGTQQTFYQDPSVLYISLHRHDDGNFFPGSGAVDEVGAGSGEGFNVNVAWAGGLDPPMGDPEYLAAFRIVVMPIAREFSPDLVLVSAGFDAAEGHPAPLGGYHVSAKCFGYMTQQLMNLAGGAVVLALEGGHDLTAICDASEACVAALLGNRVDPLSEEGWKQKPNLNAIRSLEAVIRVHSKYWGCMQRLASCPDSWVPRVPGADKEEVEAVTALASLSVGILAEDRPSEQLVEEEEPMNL
Nature of the assay: co-IP; lysate (1 mg) of NCI-H1688 and SW1271 cells transfected with FLAG-tagged HDAC7; Flag antibody (10 µg) and protein A/G magnetic beads overnight at 4 °C; western blotting for HDAC7 and β-catenin.

Chains of the proteins cited; added tags and fusions are not shown.
UniProt P35222: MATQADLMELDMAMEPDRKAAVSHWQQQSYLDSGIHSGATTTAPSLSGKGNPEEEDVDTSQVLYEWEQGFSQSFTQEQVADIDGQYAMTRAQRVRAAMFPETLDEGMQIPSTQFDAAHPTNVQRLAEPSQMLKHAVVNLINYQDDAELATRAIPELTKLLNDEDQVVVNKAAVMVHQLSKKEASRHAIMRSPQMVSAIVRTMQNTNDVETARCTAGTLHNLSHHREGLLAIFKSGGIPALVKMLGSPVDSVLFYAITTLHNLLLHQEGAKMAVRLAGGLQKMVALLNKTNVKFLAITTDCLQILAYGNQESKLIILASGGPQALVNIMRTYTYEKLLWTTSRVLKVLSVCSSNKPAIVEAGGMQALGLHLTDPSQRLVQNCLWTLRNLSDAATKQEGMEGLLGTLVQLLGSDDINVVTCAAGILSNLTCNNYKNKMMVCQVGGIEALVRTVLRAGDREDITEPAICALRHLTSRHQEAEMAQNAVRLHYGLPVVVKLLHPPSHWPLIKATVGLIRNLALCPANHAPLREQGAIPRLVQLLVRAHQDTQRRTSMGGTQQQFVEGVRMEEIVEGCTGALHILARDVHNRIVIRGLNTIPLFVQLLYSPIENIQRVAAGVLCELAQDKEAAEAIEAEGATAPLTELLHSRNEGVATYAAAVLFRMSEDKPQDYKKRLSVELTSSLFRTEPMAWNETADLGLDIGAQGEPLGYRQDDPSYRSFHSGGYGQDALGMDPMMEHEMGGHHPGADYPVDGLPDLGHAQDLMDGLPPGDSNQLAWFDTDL

Results are given in words; binding and its absence hold for the method and conditions named. In cells and extracts the contact can be indirect. Some entries that bind do so weakly or less than the wild type. Tags and fused reporters may be left off the sequences shown.

Data on one substance can be found in paper PMC11984897.

For the substance β-catenin (from UniProt P35222 1-781), the binding entry is reported as “binds”.
